This is an account of results in article PMC8277845.

Chains of the proteins cited; added tags and fusions are not shown.
UniProt P19474: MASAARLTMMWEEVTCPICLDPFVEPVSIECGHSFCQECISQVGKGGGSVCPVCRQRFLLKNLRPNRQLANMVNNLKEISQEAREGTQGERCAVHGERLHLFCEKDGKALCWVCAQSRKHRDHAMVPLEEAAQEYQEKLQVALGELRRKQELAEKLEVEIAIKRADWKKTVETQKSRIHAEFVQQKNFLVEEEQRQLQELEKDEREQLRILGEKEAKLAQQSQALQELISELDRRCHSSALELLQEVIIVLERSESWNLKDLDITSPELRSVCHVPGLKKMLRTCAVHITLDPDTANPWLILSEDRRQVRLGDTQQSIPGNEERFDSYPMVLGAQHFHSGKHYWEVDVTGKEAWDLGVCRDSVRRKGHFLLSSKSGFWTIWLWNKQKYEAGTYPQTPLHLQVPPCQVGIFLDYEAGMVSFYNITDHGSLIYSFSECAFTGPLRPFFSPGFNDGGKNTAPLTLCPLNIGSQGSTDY
UniProt Q14258: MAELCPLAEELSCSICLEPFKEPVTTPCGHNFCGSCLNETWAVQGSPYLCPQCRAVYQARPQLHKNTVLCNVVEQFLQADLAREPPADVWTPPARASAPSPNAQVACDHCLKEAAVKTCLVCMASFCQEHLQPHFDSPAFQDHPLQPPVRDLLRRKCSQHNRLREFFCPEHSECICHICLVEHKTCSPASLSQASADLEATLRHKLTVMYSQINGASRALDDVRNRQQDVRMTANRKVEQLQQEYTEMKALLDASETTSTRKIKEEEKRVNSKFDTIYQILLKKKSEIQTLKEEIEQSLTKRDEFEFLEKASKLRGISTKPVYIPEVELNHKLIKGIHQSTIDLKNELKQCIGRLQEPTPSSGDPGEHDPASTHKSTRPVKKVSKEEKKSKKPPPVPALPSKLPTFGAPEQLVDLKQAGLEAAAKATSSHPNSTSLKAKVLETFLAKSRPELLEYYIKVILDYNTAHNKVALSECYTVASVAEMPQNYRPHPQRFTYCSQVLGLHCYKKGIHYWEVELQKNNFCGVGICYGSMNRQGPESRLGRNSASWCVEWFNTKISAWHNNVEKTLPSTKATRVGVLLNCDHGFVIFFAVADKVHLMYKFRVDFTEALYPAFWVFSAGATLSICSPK
UniProt Q9Y4X5: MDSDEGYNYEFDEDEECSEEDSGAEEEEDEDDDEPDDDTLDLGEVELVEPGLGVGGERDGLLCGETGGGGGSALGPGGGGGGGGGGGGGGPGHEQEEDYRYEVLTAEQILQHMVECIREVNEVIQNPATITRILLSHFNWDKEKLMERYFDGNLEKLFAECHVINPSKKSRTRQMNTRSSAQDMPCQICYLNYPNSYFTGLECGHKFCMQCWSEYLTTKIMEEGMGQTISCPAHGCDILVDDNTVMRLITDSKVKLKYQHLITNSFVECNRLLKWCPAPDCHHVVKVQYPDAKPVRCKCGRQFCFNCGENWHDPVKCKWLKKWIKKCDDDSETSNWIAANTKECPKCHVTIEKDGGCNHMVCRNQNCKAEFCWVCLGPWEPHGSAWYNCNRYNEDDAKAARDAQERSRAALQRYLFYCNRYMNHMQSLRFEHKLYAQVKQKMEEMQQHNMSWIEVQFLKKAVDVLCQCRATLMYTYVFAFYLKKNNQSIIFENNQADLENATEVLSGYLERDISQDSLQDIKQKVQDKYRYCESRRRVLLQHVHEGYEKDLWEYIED

For this experiment, the target named is tripartite motif-containing protein 21 (TRIM21), Flag-tagged (UniProt P19474). Briefly: co-IP; TRIM21-Flag co-expressed with HHARI-Myc, EFP-Myc or HERC5-Myc in HEK293 cells; lysates (Western & IP lysis buffer) immunoprecipitated with mouse control IgG or mouse Flag antibodies and protein A/G agarose, 4 h or overnight at 4 °C; blot with rabbit Flag and mouse Myc antibodies.

No constants are given. Whether binding was seen depends on the method and setting. Binding seen in cells or lysates may run through a third protein.

Turning to “estrogen-responsive finger protein (EFP), Myc-tagged (from UniProt Q14258 1-630) (enzyme)”, the binding entry is listed as “no binding”.

For the substance “human homolog of Ariadne (HHARI), Myc-tagged (from UniProt Q9Y4X5 1-557) (enzyme)”, the binding entry is listed as “no binding”.
